## Primary screen of a compound library

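Phenotypic screen: M. tuberculosis growth, glucose 7H9 medium, 3 days; the read-out is not stated. Tested at 50 µM. Direction is inferred from retests: higher values go with more growth inhibition. About 69,000 compounds were tested under these conditions; 1.1% (about 760) showed 50% or more at least once.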

Each number is a percent effect as filed. How 0% and 100% were set is not recorded. Most values in the screen are low, and negative values occur. Compounds were drawn at random from those tested, without regard to their results. Two or more numbers in one place are separate tests of the same structure; such repeats can differ widely.

Compound	percent effect
Cc1nc(CN(C)C2CCN(CCCc3ccccc3)C2)no1 (centres unmarked)	12.67
O=C(c1cn(CCN2CCCCC2)nn1)N1CCCCO1	-8.982
CC(C)(C(N)=O)N1CCN(C(=O)c2ccn(-c3cccc(Cl)c3)n2)CC1	24.56
Cn1cc(C2CCCN2C(=O)c2cn(-c3ccccc3)nn2)cn1 (centres unmarked)	4.382 and 23.57
Cc1[nH]c(=O)[nH]c(=O)c1CC(=O)N1CCC(Oc2ccc(F)cc2)CC1	-3.714 and -1.668
COc1cccc(CNC[C@@]2(COc3cccnc3)C[C@@H](O)[C@@H](O)C2)c1.Cl.Cl	-2.331 and -21.43
COc1c(C2CCCN2c2ncnc3ccsc23)c(C)nn1C (centres unmarked)	-47.93
Cc1ccc(C(=O)N2CCc3ncnc(C)c3CC2)cn1	10.63 and 15.5
O=C(C1CCCC1)N1CCCC(c2cccc(-n3ccnc3)n2)C1 (centres unmarked)	8.019
COc1ccc(C2(NCc3c(C)nc4c(C)cccn34)CCCC2)cc1.O=C(O)CC(O)(CC(=O)O)C(=O)O	-25.23
COc1c(Br)c(C(=O)NC2CCCC2)nn1C	20
Cc1nc(CN2CCCN(C(=O)c3cccnc3O)CC2)cs1	5.979
CC(C)n1ccc2cc(C(=O)Nc3nc[nH]n3)ccc21	19.95
[H][C@@]12CN(S(=O)(=O)c3ccccc3)C[C@]1([H])OCC(=O)N2c1ccccc1	2.635 and -3.723
Cc1nccn1-c1ccc(CNS(=O)(=O)N2CCCCC2C)cn1 (centres unmarked)	2.942
CNC(=O)C1Cn2ccnc2C2(CCN(C(=O)CC3CCCC3)CC2)O1.O=C(O)C(F)(F)F (centres unmarked)	9.951 and 2.13
O=C(O)C(F)(F)F.[H][C@@]12C[C@H](C(=O)Nc3ccccc3)[C@@]([H])(CN(CCC(C)C)C1)O2	-4.782
O=C1CN(c2ccc(CNC(=O)NCCO)cc2)CCN1	1.702
CNC(=O)c1cc2c(nc1N(C)C)CCN(c1ncccn1)CC2.O=C(O)C(F)(F)F	7.144
CCc1cnc(N)nc1NCCn1cc(Cl)cn1	6.964
Cc1ccccc1C(=O)NC(C)CN1CCOC1=O (centres unmarked)	12.33
CCc1cc(NCCc2cnccn2)n2nc(C)c(C)c2n1	-13.39
COCCn1ccc2cc(C(=O)NC3CCOC(C)(C)C3)ccc21 (centres unmarked)	9.437 and 31.95
O=C(NCCn1cccn1)c1nnc2ccccc2n1	29.11
CCN1CCNC(=O)C12CCN(C(=O)Cc1ccsc1)CC2	-18.77
O=C(Nc1nncs1)NC1CCCc2c1cnn2CCO (centres unmarked)	-34.82
COCCCN1CCC(C(=O)c2cc(F)ccc2F)CC1	7.446 and -38.44
NC(=O)c1cccc(CC2CCN(C(=O)CCc3cccc(F)c3)C2)c1 (centres unmarked)	-2.252
Cc1cnn(CCNCC(=O)NCC2(c3ccccc3)CCC2)c1	-3.945
CNc1ncc(-c2csc(NC(=O)C[C@H]3COCCN3)n2)cn1.Cl	34.1
Cc1ccc(C(=O)N2CC(Oc3ccccc3C)C2)s1	81.12
Cc1ccc(CNC(=O)NCc2nccn2C)c(OC(C)(C)C)c1	6.76
[H][C@@]12C[C@@H](O)C[C@]1([H])CN(Cc1ccc(C(C)(C)C)cc1OCC(N)=O)C2	-13.67
CCc1ccccc1OCCNCCc1c[nH]cn1	-14.94
Cc1cc(C)n(C2CCCN(C(=O)CN(C)C3CC3)C2)n1 (centres unmarked)	24.61
CCNC(c1ccc(Cl)cc1)c1cccnc1 (centres unmarked)	-22.36
[H][C@]12CC[C@]([H])(CN(Cc3ccccc3)C1)N(C(=O)c1ccccc1C#N)C2	-6.036
CS(=O)(=O)N1CCOCC12CCN(Cc1ccc(F)cc1)CC2.O=C(O)C(F)(F)F	18.85
c1ccc(-n2ncc(CNCC3CCCN3c3cccnn3)n2)cc1 (centres unmarked)	44.95
CC(=O)N1CCc2nnc(C3CCCN3CC3CCCCC3)n2CC1 (centres unmarked)	11.21
Cn1cc(C(=O)NCc2ccc(N3CCNC(=O)C3)c(F)c2)cn1	-23.63
CC(C)c1ncc2c(n1)CN(Cc1cccc3c1OCCO3)CC2	8.312
O=C(O)C(F)(F)F.O=C(O)C(F)(F)F.[H][C@@]12COC[C@]1(COCC(=O)N(C)C)CN(Cc1cccc(C)n1)C2	4.977
COCCN(C)C(C(=O)O)c1ccc(C)c(C)c1 (centres unmarked)	-22.39
CCOC(=O)c1c(NC(=O)C2CCN(C(C)=O)CC2)sc(C)c1CC	19.2
Cc1cnc(N2CCC3(CC2)CCN(c2cncnc2)C3=O)nc1	-14.49 and -5.72
COCCOc1ccc(NC(=O)N2CCCC2c2cccs2)cn1 (centres unmarked)	14.97
Cc1ccnc(OCC(=O)N2CCCC2)n1	18.31
N[C@@H]1CC[C@H](C(=O)NCc2ccc3nonc3c2)C1	11.2
O=C(NS(=O)(=O)Cc1cc(-c2ccccc2)no1)C1CCOCC1	13.93
Cn1nc(C(=O)NN2CCOCC2)c(Cl)c1C(F)(F)F	-0.6993
CSCc1ccc(CNCCN2CCOCC2)o1	4.501 and 13.59
O=C(c1ccncc1F)N1CCCC1c1nc(-c2ccccc2)n[nH]1 (centres unmarked)	6.281
O=C(O)C(F)(F)F.O=C(O)C(F)(F)F.c1cnc(N2CCC3(CCN(CC4CCOCC4)CC3)C2)nc1	4.12
CNC(=O)CNC(=O)c1ccc(-c2scnc2C)nc1	-2.367
Cc1nc(C)n(C2CCCN(C(=O)c3ccc(CN(C)C)cc3)C2)n1 (centres unmarked)	-11.67
O=C(O)C(F)(F)F.[H][C@@]12CN(Cc3ccncc3)CC[C@]1([H])CN(c1ccc(C)nn1)C2	1.429
CC1(C)Cc2ccc(C(=O)NC3CCOCC3)c(O)c2O1	-8.145
O=C(Nc1cccc(CN2CCOC2=O)c1)N1CCCCCC1	-27.84
CN1CCC(CN2CCC3(CCCN(Cc4ccoc4)C3)C2=O)CC1.O=C(O)C(F)(F)F.O=C(O)C(F)(F)F (centres unmarked)	-10.07
CC(=O)NC(CC(=O)Nc1nc(C)c(C)s1)c1ccccc1 (centres unmarked)	3.411
Cn1ccc2ccc(C(=O)N3CCN(C(=O)OC(C)(C)C)CC3)cc21	-26.15
CCCn1ncc(-c2ccnc(NC3CCSC3)n2)c1C (centres unmarked)	-2.885 and 9.962
Cc1ccc(C(=O)N2CCCC(c3nncn3C)C2)c(C)c1 (centres unmarked)	-26.65
[H][C@@]12OCCN(C(=O)c3ccc(C)nc3)[C@@]1([H])CC[C@H]2OCCN(C)C	19.4
CCN1CCC(CC(=O)NCCc2nc(N)cc(O)n2)CC1	-27.48
CCOc1ccccc1CC(=O)N1C[C@@H](C(=O)O)[C@H](C2CC2)C1	9.726
Fc1cnc(N2CCCC3(CCN(Cc4nccs4)C3)C2)nc1 (centres unmarked)	28.44
CNc1ccnc(NCCC(=O)Nc2ccccc2OC)n1	8.785
O=C(O)C(F)(F)F.O=C(O)C(F)(F)F.[H][C@@]12COC[C@@H](CC(=O)NCc3cccnc3)[C@]1([H])CN(CC1CC1)C2	21.68
Cc1nc[nH]c1CN1CCc2nc3scc(C)c3c(=O)n2CC1.Cl	24.98
CC(C)(C)c1nc(CN(Cc2cccs2)C2CCS(=O)(=O)C2)no1 (centres unmarked)	18.7
CCc1nc(CN(C(C)=O)C2CCN(CCc3ccncc3)C2)no1 (centres unmarked)	-30.28
Cc1n[nH]c(C)c1CC(=O)N1CCN(C)C2(CCNC(=O)CC2)C1 (centres unmarked)	28.5
CN(CCc1ccccn1)C(=O)Cn1cc(-c2ccccc2)nn1	-5.936
CCN(CCNCc1ccc(C#N)cc1)C1CC1	-11.48 and -1.384
CS(=O)(=O)NC1CCCN(C(=O)Nc2cccnc2)C1 (centres unmarked)	13.77
Cc1nc(C2CCCN2CC(=O)Nc2c(C)n[nH]c2C)no1 (centres unmarked)	-54.83
CC(C)N1CCC(c2cc(C(F)(F)F)n3ccnc3n2)CC1	15.4
Cc1cccc(NC(C)C(=O)Nc2nccs2)c1 (centres unmarked)	33.96 and 16.51
CC(CNC(=O)N1CCSCC1)Cc1cccs1 (centres unmarked)	20.57
CCN1CC(COc2ccc(OC)cc2)Oc2ccncc2S1(=O)=O (centres unmarked)	8.143
O=C(Nc1cccnc1-n1cncn1)N(C1CCCC1)C1CC1	11.87 and 4.989
CC(C)NC(=O)COc1nc(C(C)(C)C)no1	1.037
O=c1n(Cc2ccccc2F)nc2ncccn12	-24.4
COCCN1CCN(Cc2nnc(-c3occc3C)o2)CC1	-17.39
Cc1nnc(SCCNc2cc(C3CC3)ncn2)s1	35.6
Cc1cccc(C(=O)N2CCn3cnc(COCC4CC4)c3C2)c1	18.1 and -1.438
CNC(=O)N1CCC2(CC1)CN(C)c1ccc(F)cc12	8.609 and 3.474
[H][C@@]12CCN[C@]1([H])CN(S(=O)(=O)c1cccc(Cl)c1)C2	-11.88
CC(C)Cc1noc(CN2CCN(CCOc3ccc(Cl)cc3)CC2)n1	32.94
CN(Cc1ccco1)C(=O)CN1CCCCC1Cn1cncn1 (centres unmarked)	-5.465
O=C(O)C(F)(F)F.[H][C@]12CCN(C(=O)c3ccncc3F)[C@@]1([H])CCC(COCC1CC1)O2 (some centres unmarked)	-14.75
CCc1cnc(CN(C(C)=O)C2CCN(Cc3nccn3C)C2)o1 (centres unmarked)	-21.96

Some entries from above, unchanged:

Compound	percent effect
c1ccc(-n2ncc(CNCC3CCCN3c3cccnn3)n2)cc1 (centres unmarked)	44.95
CN(Cc1ccco1)C(=O)CN1CCCCC1Cn1cncn1 (centres unmarked)	-5.465
Cc1nc(CN2CCCN(C(=O)c3cccnc3O)CC2)cs1	5.979
Cc1nc(CN(C)C2CCN(CCCc3ccccc3)C2)no1 (centres unmarked)	12.67
CCc1nc(CN(C(C)=O)C2CCN(CCc3ccncc3)C2)no1 (centres unmarked)	-30.28

Source: ChEMBL document CHEMBL3988442, “University of Dundee, Small-Polar-MMV Screening Library” (2021).